# This is one part of the list. These are further read-outs of the screen, such as a control signal, another cell line or another target. No call is given for them. The list favours compounds with an active or inconclusive main result. Potencies come from curve fits of mixed quality, noted in brackets.
# Test: qHTS Assay for Lipid Storage Modulators in Drosophila S3 Cells;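 on cell number change: cells counted by Cell Tracker Red CMTPX staining in the red channel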
# Settings: BODIPY lipid droplet fluorescence, 18-24 h; for cell number change: measured here: cell count max response, cells fed with added oleic acid
# Outline: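 Laser-scanning cytometry quantifies lipid droplet accumulation (500–530 nm total intensity; droplet/cell object ratio) in oleic acid-fed (400 uM added) Drosophila S3 cells treated with a concentration series. 20 uM Triacsin C defined 100% inhibition.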
# [1] = measured here: lipid fluorescence (Fed channel) AC50, cells fed with added oleic acid
# [2] = measured here: cell number channel AC50, cells fed with added oleic acid
SMILES,cell number change,AC50 [1],AC50 [2]
COc1cccc(C(=O)NCC(=O)NCc2cc(=O)n(C)c(=O)n2C)c1OC,-2.72%,"0.58 µM [rising, single point]",
COc1ccc(C(=O)Nc2ccccc2C(=O)Nc2ccc(C(=O)O)cc2)cc1,-20.1%,"2.59 µM [falling, partial curve]",
COc1cc(OC)c(NC(=O)c2csc(C)c2)cc1Cl,31.3%,,"6.31 µM [rising, full curve, poor fit]"
CC1=C(C(=O)Nc2ccc(C(=O)N3CCN(c4cccc(Cl)c4)CC3)cc2)SCCO1,,"6.51 µM [rising, single point]",
CCOC(=O)C1CCCN(C(=O)c2ccc([N+](=O)[O-])c(C)c2)C1 (stereo unspecified),,,"2.06 µM [rising, partial curve]"
CN(C(=O)c1cc(-c2ccc3c(c2)OCO3)on1)c1ccccc1,15.8%,"1.16 µM [falling, single point]",
Cc1nsc2nc3c(F)c(F)c(F)c(F)c3cc12,11.2%,"0.058 µM [falling, full curve]",
Cc1ccc(C)c(NC(=O)CN(C)C(=O)c2ccc3[nH]c4c(c3c2)CC(C)CC4)c1 (stereo unspecified),-33.5%,,"7.31 µM [falling, full curve, poor fit]"
COc1cccc(-c2csc(N3CCN(C(=O)NC45CC6CC(CC(C6)C4)C5)CC3)n2)c1,-28.9%,"23.1 µM [falling, single point]",
Cc1ccc(C)c(C(=O)COC(=O)CN2C(=O)C3C4C=CC(C4)C3C2=O)c1 (stereo unspecified),-4.76%,"29.1 µM [falling, single point]",
O=C(Cn1cc(C(F)(F)F)ccc1=O)N/N=C/c1ccc(Cl)cc1Cl,,,"6.51 µM [rising, partial curve, poor fit]"
CC(C)(C)NC(=O)CSc1nc(-c2ccccc2)cc(=O)[nH]1,13.4%,,
CCOC(=O)C1(CCOc2ccccc2)CCN(Cc2cccc(F)c2)CC1,-27.4%,"3.26 µM [falling, partial curve, poor fit]",
Cc1ccccc1NCc1ccc(O)c2ncccc12,-19.8%,"16.4 µM [falling, single point]",
O=C(c1cccc(Br)c1)N1CCN(C(=O)N2CCOCC2)CC1,30.7%,"29.1 µM [rising, single point]","20.6 µM [rising, single point]"
CCCCCc1ccc(-c2ccc(/C=C/C(=O)O)cc2)nc1,-11.6%,,
CC1(C)OC(=O)C(=CNCCc2ccc(O)cc2)C(=O)O1,-42.3%,"16.4 µM [falling, single point]",
O=C(Nc1nccs1)C1CC(=O)N(c2ccc(F)cc2)C1 (stereo unspecified),15.3%,"29.1 µM [falling, single point]",
COC(=O)COc1ccc(S(=O)(=O)N2CCCCCC2)cc1C,9.13%,,
O=C(N/N=C\c1cc2c(cc1Cl)OCO2)c1cccs1,-4.11%,,
O=C(N/N=C/c1ccc([N+](=O)[O-])o1)c1cc2ccccc2o1,-33.4%,"16.4 µM [falling, single point]","16.4 µM [falling, single point]"

SMILES,cell number change,AC50 [1],AC50 [2]
Cc1ccc(C)c(N2CCN(C(=O)c3cn(C)c4ccc(S(=O)(=O)N(C)C)cc4c3=O)CC2)c1,41.2%,"29.1 µM [rising, single point]","18.4 µM [rising, partial curve]"
COc1ccc(S(=O)(=O)NNC(=O)Nc2ccc(C)cc2)c(OC)c1,-3.12%,,"0.0651 µM [falling, full curve, poor fit]"
Cc1nc2ccc(NS(=O)(=O)c3ccc(F)cc3F)cc2s1,,"29.1 µM [falling, single point]",
O=C(CCC(=O)N1CCN(Cc2ccc(F)cc2)CC1)Nc1nnc(C(F)(F)F)s1,18%,,
c1csc(-c2noc(CN3CCN4CCCC4C3)n2)c1 (stereo unspecified),6.3%,"29.1 µM [rising, single point]",
CCn1c(C)nc2cc(C(=O)NNC(=O)c3ccc(Cl)nc3)ccc21,10.6%,,
O=C(O)COc1ccccc1/C=N/n1c(C2CCCCC2)n[nH]c1=S,47.2%,,"6.51 µM [rising, partial curve]"
COCCNC(=O)C(=O)Nc1cc2c3c(c1)C(C)C(=O)N3CCC2 (stereo unspecified),24.8%,,
C=CCOC(=O)C1=C(C)NC(SCC(=O)Nc2ccc(C)c(Cl)c2)=C(C#N)C1c1ccco1 (stereo unspecified),-42.9%,"29.1 µM [falling, single point]","14.6 µM [falling, partial curve]"
CC1C(=O)Nc2ccccc2N1C(=O)c1cccc(C(F)(F)F)c1 (stereo unspecified),,"29.1 µM [falling, single point]","0.461 µM [rising, partial curve, poor fit]"
CCN1C(=O)S/C(=C/c2cn(C)c3ccccc23)C1=O,-21.1%,,
Cc1ccc(O)c(NC(=O)CSc2ccc(Cl)cc2)c1,-32.3%,"1.26 µM [falling, full curve, poor fit]",
CC(C)CCN1CCN(Cc2nc3ccccc3s2)CC1CCO (stereo unspecified),18.9%,"29.1 µM [rising, single point]",
O/N=C/c1cn(-c2ccccc2)nc1-c1ccc2c(c1)OCCO2,78.5%,,"18.4 µM [rising, single point]"
O=C(CCCSc1nnc(SCCCC(=O)c2ccc(F)cc2)s1)c1ccc(F)cc1,-14.3%,"8.2 µM [falling, single point]",
O=C(CSc1nc(-c2ccccc2)c(-c2ccccc2)o1)NC1CCS(=O)(=O)C1 (stereo unspecified),19.4%,,
O=C(COc1ccc(F)cc1Cl)Nc1cc(S(=O)(=O)N2CCOCC2)ccc1N1CCCCC1,18.5%,"0.1 µM [rising, full curve, poor fit]",
Cc1ccc(C)c2c1[nH]c1ccccc12,26%,"9.2 µM [rising, partial curve]",
CC(CC(=O)Nc1cc(S(=O)(=O)N2CCOCC2)ccc1OCC(F)(F)F)c1ccccc1 (stereo unspecified),54.5%,,
COc1ccc(N(C(=O)c2snc(C(N)=O)c2N)C(C(=O)NC2CCCC2)c2ccco2)c(OC)c1 (stereo unspecified),12.1%,"8.2 µM [falling, partial curve]",
CC(C)(C)C1=CC(=Nc2ccccc2N)C=C(C(C)(C)C)C1=O,,,"0.00461 µM [falling, full curve, poor fit]"

SMILES,cell number change,AC50 [1],AC50 [2]
O=C(/C=C/c1ccco1)N1CCN(c2ncccn2)CC1,,"18.4 µM [rising, partial curve]",
Cc1ccc(S(=O)(=O)N(C)CC(=O)N2CCN(C(=O)c3ccco3)CC2)cc1,20.2%,"0.231 µM [falling, full curve, poor fit]",
Cc1ccc(C(=O)Nc2c(C)cc(-c3ccc(Cl)cc3)oc2=O)cc1,-2.87%,,
CC1CC(=O)Nc2ccccc2N1S(=O)(=O)c1cccc(F)c1 (stereo unspecified),-21%,"4.61 µM [falling, full curve, poor fit]",
Cc1ccc(NC(=O)COC(=O)C2CCC(=O)N2)c([N+](=O)[O-])c1 (stereo unspecified),-16.2%,"0.116 µM [falling, full curve, poor fit]",
CC1CCCCC1NC(=O)/C(C#N)=C/c1ccc(OCC(N)=O)cc1 (stereo unspecified),-25.3%,"3.66 µM [falling, single point]",
Cc1ccc(N2C(=O)N3[C@H](c4ccc(Cl)cc4)[C@@H]4C(=O)N(C5CCCCC5)C(=O)[C@@H]4[C@]3(Cc3ccccc3)C2=O)cc1,12%,"18.4 µM [rising, partial curve]",
COc1cc(-c2cc(N3C(=O)Nc4ccccc4N3O)n[nH]2)cc(OC)c1OC,8.99%,"1.16 µM [falling, single point]",
COc1ccc(C2=C(C=C(C#N)C#N)C(c3ccccc3C)c3ccccc3O2)cc1OC (stereo unspecified),-1.9%,"29.1 µM [rising, single point]",
COc1cccc(OCC(=O)N(C)Cc2nc(-c3cccc(C)c3)no2)c1,16.1%,,
O=c1cc(-c2ccc(O)c(O)c2)oc2ccc3ccccc3c12,-65.2%,,"16.4 µM [falling, partial curve]"
CCOc1ccccc1CNC(=O)c1cc2occc2n1C,,"16.4 µM [rising, partial curve]",
O=C(CSc1nnc(-c2ccccc2)c2ccccc12)NCCN1C(=O)CSC1=O,-3.23%,"1.46 µM [falling, full curve]","0.411 µM [rising, full curve, poor fit]"
O=C(c1cc(Cl)nc2ccccc12)N(Cc1nnc(-c2ccc(Cl)cc2)o1)C1CC1,27.5%,,
COc1cccc(N=Cc2c(O)n(-c3cccc(C)n3)c(=O)c3ccccc23)c1,43.7%,"1.3 µM [rising, partial curve]","1.16 µM [rising, partial curve]"
COc1ccc(CNC(=O)c2nn(-c3ccccc3)cc2OC)cc1,32.1%,"1.16 µM [rising, single point]","0.82 µM [rising, full curve]"
O=C(Nc1cccc(-c2cn3cccnc3n2)c1)c1ccco1,84.8%,,
CCCc1ccc(-c2cc(N)n[nH]2)cc1,2.62%,"0.103 µM [rising, full curve, poor fit]",
COc1ccccc1-c1c(C(F)(F)F)oc2cc(OC(=O)c3ccc([N+](=O)[O-])cc3)ccc2c1=O,-28.5%,"18.4 µM [falling, single point]",
CCC(=O)N1CCN(c2ccc(NC(=O)c3ccc([N+](=O)[O-])o3)cc2)CC1,-25.2%,"1.16 µM [falling, full curve]","1.3 µM [falling, full curve]"

# Shown with bars between the fields: entries from further up.
SMILES | cell number change | AC50 [1] | AC50 [2]
CC1=C(C(=O)Nc2ccc(C(=O)N3CCN(c4cccc(Cl)c4)CC3)cc2)SCCO1 |  | 6.51 µM [rising, single point] | 
CCOC(=O)C1CCCN(C(=O)c2ccc([N+](=O)[O-])c(C)c2)C1 (stereo unspecified) |  |  | 2.06 µM [rising, partial curve]
Cc1ccc(C)c2c1[nH]c1ccccc12 | 26% | 9.2 µM [rising, partial curve] | 
Cc1ccc(S(=O)(=O)N(C)CC(=O)N2CCN(C(=O)c3ccco3)CC2)cc1 | 20.2% | 0.231 µM [falling, full curve, poor fit] | 
